Test results published in patent publication US20210402011A1, “A COMPOUND FOR THE DETECTION OF HNO IN BIOLOGICAL SYSTEMS” (COUNCIL. OF SCIENTIFIC AND INDUSTRIAL RESEARCH, priority 2016, published 2021).

Test: Fluorescence emission studies for HNO detection in aq. PBS buffer-CH3CN
Procedure: The spectroscopic properties of ER-HNO in aq. PBS buffer medium under physiological pH medium. No significant difference is observed in the electronic spectra of ER-HNO and ER-S. In order to check the response of ER-HNO probe (10 uM) with in presence of 20 mole equivalent of various ROS and RNS (HNO, HOCl, H2O2, —OH, TBHP, NO3^−, NO2^−, benzoyl peroxide, S^2− and ascorbate) emission spectra are recorded in aq. […] A turn ON emission response is observed for probe ER-HNO, only in presence of HNO with λEms^Max=580 nm (λExt=530 nm). Moreover, no significant changes are observed in presence of different anionic, cationic as well as biothiols under identical experimental condition. The effects of pH on emission spectrum of probe ER-HNO is also investigated. […] Therefore, to explore the bio analytical application, all the studies are carried out at physiological pH medium.
An enhancement in emission signal are observed at λMax=586 nm (Φ=0.105, for λExt=530 nm) with gradual increasing [HNO] (FIG. 1B). A good linearity is observed between emission intensity and concentration of HNO in the range of 2-15 uM, with a lower detection limit of 2 μM. […] PBS buffer medium.
Stock solution of probe ER-HNO (1×10^−4M) was prepared in HPLC grade acetonitrile. All the analytes stock solution (1×10^−2M) was prepared in aqueous HEPES buffer (10 mM) medium at pH 7.2. 500 μL of this stock solution of probe ER-HNO was added to 4.5 ml of PBS (10 mM) aqueous buffer medium having solution pH 7.2 to make the effective ER-HNO concentration of (1×10^−5) M. This solution was used for all the photophysical studies. All the photophysical studies were performed in aq. PBS: CH3CN medium (9:1, v/v) at pH7.2. All emission studies were done using λExt=530 nm with an emission slit width of 2/2 nm, unless and otherwise mentioned.

[1] = aq. PBS buffer, physiological pH

With “(E)-4-(2-(5,5-difluoro-1,7,9-trimethyl-10-phenyl-5H-5l4,6l4-dipyrrolo[1,2-c:2′,1′-f][1,3,2]diazaborinin-3-yl)vinyl)phenyl 2-(diphenylphosphanyl)benzoate [ER-HNO]” the “linear range of emission intensity vs concentration of HNO” value [1] was 2 to 15 µM, the “lower detection limit for HNO” value [1] was 2 µM and the “emission quantum yield Φ, probe itself” value (λExt=530 nm, aq-PBS buffer medium, no HNO) was 0.002. The “emission quantum yield Φ with increasing [HNO]” value (λExt=530 nm, λMax=586 nm, with HNO) was 0.105.
